No dose or concentration is given here for some results.
System: pregnant rats
Assay: Delivery day and pup survival after L-NAME infusion to pregnant rats; effect of CGRP on fetal survival
Type: in vivo
Conditions: L-NAME 50/mg/day infusion to pregnant rats; 5 animals

COC(=O)[C@@H](N)CCCNC(=N)N[N+](=O)[O-] [L-NAME, N^G -nitro-L-arginine methyl ester]
Day of Delivery: 22 ± 0 | Total # of pups: 55
